Results taken from paper PMC4958294.

T1: GST–CT2 (Gin4 residues 751–1050 fused to GST) (Candida albicans) (UniProt Q59W62)
T1 sequence: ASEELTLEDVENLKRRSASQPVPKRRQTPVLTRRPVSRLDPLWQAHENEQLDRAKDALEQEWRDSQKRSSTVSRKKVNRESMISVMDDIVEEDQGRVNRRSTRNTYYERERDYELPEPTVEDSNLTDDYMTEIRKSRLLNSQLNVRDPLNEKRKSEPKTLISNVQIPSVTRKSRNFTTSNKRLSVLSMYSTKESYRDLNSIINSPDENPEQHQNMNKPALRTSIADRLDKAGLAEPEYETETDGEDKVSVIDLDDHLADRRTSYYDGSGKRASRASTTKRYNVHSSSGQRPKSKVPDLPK

B1: CT1 (Gin4 residues 1051–1349) (domain or fragment, UniProt Q59W62 1051-1349)
chain: NDYDDTFVSNSDEVHKRQYKSMVSDESSASDDVFDKIKLPDGKSTKSSIDELANGTSTSGHRKPKIRHSQPGPEMLIPHLNGGIESSQPMSKVRGNNSSGHDDSVPPPPPAHKVNKKPLDDKTNFPPPEVDPKRKGSFFRKLSWGSKKTIENNTNAATNTTTQQQLPSPAESKEEKPKSSFFRWFSSSNTPSAAEIRKFNTILPKHEMSTALFALLNSWSNFGLKDLRNDQVGYYITGAISKHNSFNLKSCKFRIKINQRDFNQKSEIVCVRVKGSKVTTDTLFSEIEKVLLKEGVLDK

How the values were obtained:
[1] = biological target: T1, GST–CT2 (Gin4 residues 751–1050 fused to GST) (Candida albicans); assay: pull-down; GST–CT2 purified from E. coli held on GST-Trap beads, incubated with lysates of GIN4-ON or GIN4-OFF C. albicans cells expressing Cdc12–Myc; washes with 150 mM or 1 M NaCl; western blot for Myc and GST; only the target purified
[2] = biological target: Cdc12–Myc (septin Cdc12, C-terminal Myc tag) (Candida albicans); assay: co-IP; CT1 with Cdc12 in GIN4-ON and GIN4-OFF C. albicans cells (Fig. S1B); beads and tags not given

Molecule	binding [1]	binding [2]
Cdc12–Myc (septin Cdc12, C-terminal Myc tag) (Candida albicans)	binds	–
B1	–	binds

Results are given in words; binding and its absence hold for the method and conditions named. In cells and extracts the contact can be indirect. Binding can be weak; no strength is given. For some assays here: Tags and fused reporters may be left off the sequences shown.
